Patent publication US8748177B2, “Compositions for proliferation of cells and related methods” (The Hospital for Sick Children, priority 2008, dated 2014)
At least one structure is not confirmed: it was looked up by name or label, or the drawing left a doubt.

System: xenograft neuroblastoma tumors
Assay: Tumor formation, xenograft neuroblastoma tumors in vivo
Design: species or system human
Details: FIG. 4C

Question: `CO[C@H]1C[C@@H]2CC[C@@H](C)[C@@](O)(O2)C(=O)C(=O)N2CCCC[C@H]2C(=O)O[C@H]([C@H](C)C[C@@H]2CC[C@@H](O)[C@H](OC)C2)CC(=O)[C@H](C)/C=C(\C)[C@@H](O)[C@@H](OC)C(=O)[C@H](C)C[C@H](C)/C=C/C=C/C=C/1C` [rapamycin] was tested. Which tumor formation did it give?
Answer: inhibition of tumor formation
